Results taken from paper PMC6471591, “Preparation of Sesquiterpene Lactone Derivatives: Cytotoxic Activity and Selectivity of Action” (Molecules, 2019).

test system: human solid tumor cell lines (A549, HBL-100, HeLa, SW1573, T-47D, WiDr); assay: Antiproliferative SRB assay, whole panel of tumor cell lines; assay type: cell-based; conditions: tumor cell lines versus mouse splenocytes
Method: In vitro antiproliferative activity was evaluated using the protocol of the National Cancer Institute (NCI) after 48 h of drug exposure using the sulforhodamine B (SRB) assay. […] We cannot discard that increasing lipophilicity may well result in an increase in cytotoxicity in vitro.
The following human solid tumor cell lines were used in this study: HBL-100 (breast), HeLa (cervix), SW1573 (non-small cell lung), T-47D (breast), A549 (lung), and WiDr (colon). Cells were maintained in 25 cm^2 culture flasks in RPMI 1640 supplemented with 5% heat-inactivated fetal calf serum and 2 mM L-glutamine in a 37 °C, 5% CO2, 95% humidified air incubator. Exponentially growing cells were trypsinized and resuspended in antibiotic containing medium (100 units penicillin G and 0.1 mg of streptomycin per mL). Single-cell suspensions displaying >97% viability by trypan blue dye exclusion test were subsequently counted. After counting, dilutions were made to give the appropriate cell densities for inoculation onto 96-well microtiter plates. Cells were inoculated in a volume of 100 μL per well at densities of 20,000 (WiDr), 15,000 (T-47D and A549), and 10,000 (HeLa, SW1573, and HBL-100) cells per well, based on their doubling times.
Chemosensitivity tests were performed using the SRB assay of the NCI with slight modifications. Briefly, pure compounds were initially dissolved in DMSO at 400 times the desired final maximum test concentration. Control cells were exposed to an equivalent concentration of DMSO (0.25% v/v, negative control). Each agent was tested in triplicate at different dilutions in the range 1–100 μM. Drug treatment started on day 1 after plating. […] Optical density (OD) of each well was measured at 492 nm, using BioTek’s PowerWave XS Absorbance Microplate Reader (Highland Park, Winooski, VT, USA). […] The percentage growth (PG) was calculated with respect to untreated control cells (C) at each level of drug concentrations based on the difference in OD at the start time (T0) and at the end of drug exposure (T), according to NCI formulas. […]

Compound	selectivity of action against tumor cell lines in words
C=C1C(=O)O[C@@H]2C[C@@H](C)[C@@H]3C=CC(=O)[C@@]3(C)[C@@H](O)[C@H]12 [Compound 2, helenalin]	low selectivity
C=C1C(=O)O[C@@H]2[C@H]1CC[C@H](C)[C@@]1(O)C=CC(=O)[C@@]21C [Compound 3, hymenin]	low selectivity
C=C1C(=O)OC2CC(C)C3CC(OCc4cn(Cc5ccccc5)nn4)C(O)C3(C)CC12 (stereo not drawn) [Compound 10]	low selectivity
